Laboratory results: PubChem BioAssay AID743454 (Peter MacCallum Cancer Centre, 2014)
Aim: 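Search for knock-downs that restore vorinostat killing in resistant colon cancer cells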 (primary screen). System: human HCT116-VR colon cancer cells, selected for vorinostat resistance. Reagent: siRNA pool against human genes, 40 nM siRNA pool. Time to read-out: vorinostat for 24 h, read-out about 72 h after transfection. Challenge: vorinostat at 2.5 µM final. Read-out: 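Cell viability by CellTiter-Fluor and caspase 3/7 activity by luminescence, each scaled to mock wells per plate, duplicates averaged, then robust z-scored over all plates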. Reading the numbers: viability robust z-score: higher = more viable cells than screen typical; caspase robust z-score: higher = more caspase 3/7 activity than screen typical. Hit rule: 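Hits are knock-downs in viability class RV1/RV2 or caspase class CA1/CA2, excluding ones that killed cells in the no-drug cell-count arm; hits then retested with single siRNAs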.
In all, the deposit lists about 18,000 reagents; this is a random part of them. 450 of them (2.5%) count as active. 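Single biological run; no consistent viability z cut-off exists, so the class columns, not z-scores, define the calls.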 Entries without a mark were called inactive.

Silencing of BIK (BCL2 interacting killer) came out at: viability hit class no change; caspase hit class no change; viability robust z-score 0.8; caspase robust z-score -0.02.
Knock-down of OLIG3 (oligodendrocyte transcription factor 3) came out at: viability hit class no change; caspase hit class no change; viability robust z-score -0.08; caspase robust z-score -0.16.
After knock-down of ANXA11 (annexin A11) the results were viability hit class no change; caspase hit class no change; viability robust z-score 0.69; caspase robust z-score 0.1.
Silencing of PDZD7 (PDZ domain containing 7) resulted in: viability hit class no change; caspase hit class no change; viability robust z-score -0.25; caspase robust z-score 0.62.
Silencing of DSP (desmoplakin) gave: viability hit class no change; caspase hit class no change; viability robust z-score 1.27; caspase robust z-score 0.
For AMN (amnion associated transmembrane protein), the values are viability hit class no change; caspase hit class no change; viability robust z-score 1.05; caspase robust z-score 2.12.
NXPH1 (neurexophilin 1) gave viability hit class no change; caspase hit class no change; viability robust z-score 0.64; caspase robust z-score -0.84.
Depletion of IGFL3 (IGF like family member 3) came out at: viability hit class no change; caspase hit class no change; viability robust z-score 0.62; caspase robust z-score -0.1.
Knock-down of LMOD1 (leiomodin 1) came out at: viability hit class no change; caspase hit class no change; viability robust z-score -0.06; caspase robust z-score -0.64.
SMTNL2 (smoothelin like 2) scored viability hit class no change; caspase hit class no change; viability robust z-score 0.26; caspase robust z-score -0.54.
With knock-down of NDFIP2 (Nedd4 family interacting protein 2), the screen gave viability hit class no change; caspase hit class no change; viability robust z-score 1.07; caspase robust z-score -0.56.
NUDT18 (nudix hydrolase 18) showed viability hit class no change; caspase hit class no change; viability robust z-score 1.16; caspase robust z-score -0.19.
GLT6D1 (glycosyltransferase 6 domain containing 1) scored viability hit class no change; caspase hit class no change; viability robust z-score 0.04; caspase robust z-score -0.62.
Against FOXL1 (forkhead box L1), the values are viability hit class no change (active); caspase hit class CA2 (caspase activation); viability robust z-score -1.82; caspase robust z-score 6.23.

Records listed so far marked active (1):
FOXL1 (forkhead box L1): viability hit class = no change (active); caspase hit class = CA2 (caspase activation); viability robust z-score = -1.82; caspase robust z-score = 6.23
